# Source: the supplement of paper PMC10849652
# The chains behind the UniProt entries cited, without tags or fusion partners. Where a name states a change or a piece, a line headed by the entry shows the natural chain unless it says otherwise.
# UniProt Q9H1U9: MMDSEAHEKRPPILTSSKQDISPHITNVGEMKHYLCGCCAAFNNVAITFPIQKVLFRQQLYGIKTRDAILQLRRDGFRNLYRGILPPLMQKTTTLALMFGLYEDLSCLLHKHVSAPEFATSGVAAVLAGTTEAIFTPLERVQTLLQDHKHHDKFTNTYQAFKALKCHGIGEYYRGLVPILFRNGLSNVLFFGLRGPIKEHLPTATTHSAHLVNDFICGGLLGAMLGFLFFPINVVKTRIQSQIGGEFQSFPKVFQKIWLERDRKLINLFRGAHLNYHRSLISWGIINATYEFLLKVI
# UniProt P53007, whole entry, looked up: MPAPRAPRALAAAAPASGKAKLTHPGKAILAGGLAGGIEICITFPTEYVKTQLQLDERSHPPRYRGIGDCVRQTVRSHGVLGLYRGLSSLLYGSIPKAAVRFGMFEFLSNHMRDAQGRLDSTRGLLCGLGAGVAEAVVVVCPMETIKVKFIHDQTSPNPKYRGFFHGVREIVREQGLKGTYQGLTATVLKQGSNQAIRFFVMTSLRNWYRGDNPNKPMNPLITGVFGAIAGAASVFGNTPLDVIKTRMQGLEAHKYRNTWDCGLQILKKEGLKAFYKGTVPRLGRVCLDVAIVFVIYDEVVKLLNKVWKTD
# UniProt Q6NUK1: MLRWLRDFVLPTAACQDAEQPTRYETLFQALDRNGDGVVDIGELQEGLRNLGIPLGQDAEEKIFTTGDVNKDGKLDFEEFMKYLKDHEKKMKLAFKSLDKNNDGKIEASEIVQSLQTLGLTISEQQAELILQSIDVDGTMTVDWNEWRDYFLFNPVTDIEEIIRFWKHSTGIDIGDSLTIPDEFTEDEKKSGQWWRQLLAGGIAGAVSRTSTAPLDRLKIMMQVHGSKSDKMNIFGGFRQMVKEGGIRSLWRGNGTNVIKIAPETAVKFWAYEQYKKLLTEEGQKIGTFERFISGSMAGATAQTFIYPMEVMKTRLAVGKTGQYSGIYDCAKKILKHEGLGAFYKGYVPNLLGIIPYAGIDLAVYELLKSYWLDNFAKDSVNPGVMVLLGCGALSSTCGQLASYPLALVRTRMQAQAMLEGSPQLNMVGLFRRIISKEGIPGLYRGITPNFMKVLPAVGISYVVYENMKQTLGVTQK
# UniProt Q9H1N7: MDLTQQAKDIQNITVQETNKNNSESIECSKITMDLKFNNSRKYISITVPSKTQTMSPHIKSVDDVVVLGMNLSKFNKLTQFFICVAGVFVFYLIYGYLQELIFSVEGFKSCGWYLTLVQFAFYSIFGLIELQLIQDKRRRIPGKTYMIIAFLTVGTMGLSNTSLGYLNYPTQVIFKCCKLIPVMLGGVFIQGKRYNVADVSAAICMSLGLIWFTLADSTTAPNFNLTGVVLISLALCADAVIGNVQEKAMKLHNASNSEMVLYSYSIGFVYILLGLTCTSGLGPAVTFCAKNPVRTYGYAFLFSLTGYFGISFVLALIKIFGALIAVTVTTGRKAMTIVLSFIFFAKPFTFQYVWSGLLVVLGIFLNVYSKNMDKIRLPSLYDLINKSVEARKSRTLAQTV
# UniProt O95391: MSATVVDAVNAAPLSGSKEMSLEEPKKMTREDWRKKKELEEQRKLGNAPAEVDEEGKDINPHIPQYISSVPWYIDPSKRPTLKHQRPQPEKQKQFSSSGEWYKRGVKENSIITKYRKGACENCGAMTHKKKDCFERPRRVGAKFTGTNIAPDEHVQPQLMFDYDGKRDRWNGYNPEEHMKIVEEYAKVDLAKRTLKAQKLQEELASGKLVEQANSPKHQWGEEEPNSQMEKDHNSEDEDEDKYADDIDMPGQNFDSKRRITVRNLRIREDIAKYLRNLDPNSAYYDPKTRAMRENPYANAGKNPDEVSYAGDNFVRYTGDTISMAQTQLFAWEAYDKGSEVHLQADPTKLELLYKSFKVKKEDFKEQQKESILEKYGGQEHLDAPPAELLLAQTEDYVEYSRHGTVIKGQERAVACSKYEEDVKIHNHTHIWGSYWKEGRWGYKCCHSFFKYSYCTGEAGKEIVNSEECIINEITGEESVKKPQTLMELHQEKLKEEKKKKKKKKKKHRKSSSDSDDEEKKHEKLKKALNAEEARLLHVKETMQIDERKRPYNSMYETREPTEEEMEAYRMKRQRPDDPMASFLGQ
# UniProt O00193: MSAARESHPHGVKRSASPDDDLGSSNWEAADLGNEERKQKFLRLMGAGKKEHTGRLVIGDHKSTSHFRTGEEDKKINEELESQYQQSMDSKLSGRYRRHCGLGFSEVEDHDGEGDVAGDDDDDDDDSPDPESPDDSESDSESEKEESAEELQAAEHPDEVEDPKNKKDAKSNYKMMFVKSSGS
# UniProt Q9Y6M5: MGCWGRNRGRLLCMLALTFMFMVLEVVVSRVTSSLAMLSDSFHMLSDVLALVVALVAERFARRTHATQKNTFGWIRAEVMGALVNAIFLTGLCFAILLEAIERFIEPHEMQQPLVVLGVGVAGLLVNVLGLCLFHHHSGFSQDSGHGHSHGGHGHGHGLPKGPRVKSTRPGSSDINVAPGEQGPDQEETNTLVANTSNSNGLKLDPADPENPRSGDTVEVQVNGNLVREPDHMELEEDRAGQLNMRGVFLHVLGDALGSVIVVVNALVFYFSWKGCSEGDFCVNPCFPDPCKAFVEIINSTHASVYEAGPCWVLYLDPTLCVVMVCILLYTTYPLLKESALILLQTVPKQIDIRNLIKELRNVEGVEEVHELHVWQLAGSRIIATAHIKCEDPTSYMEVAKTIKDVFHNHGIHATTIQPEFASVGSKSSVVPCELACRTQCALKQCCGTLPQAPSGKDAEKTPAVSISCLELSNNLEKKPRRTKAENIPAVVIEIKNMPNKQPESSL
# UniProt P48029: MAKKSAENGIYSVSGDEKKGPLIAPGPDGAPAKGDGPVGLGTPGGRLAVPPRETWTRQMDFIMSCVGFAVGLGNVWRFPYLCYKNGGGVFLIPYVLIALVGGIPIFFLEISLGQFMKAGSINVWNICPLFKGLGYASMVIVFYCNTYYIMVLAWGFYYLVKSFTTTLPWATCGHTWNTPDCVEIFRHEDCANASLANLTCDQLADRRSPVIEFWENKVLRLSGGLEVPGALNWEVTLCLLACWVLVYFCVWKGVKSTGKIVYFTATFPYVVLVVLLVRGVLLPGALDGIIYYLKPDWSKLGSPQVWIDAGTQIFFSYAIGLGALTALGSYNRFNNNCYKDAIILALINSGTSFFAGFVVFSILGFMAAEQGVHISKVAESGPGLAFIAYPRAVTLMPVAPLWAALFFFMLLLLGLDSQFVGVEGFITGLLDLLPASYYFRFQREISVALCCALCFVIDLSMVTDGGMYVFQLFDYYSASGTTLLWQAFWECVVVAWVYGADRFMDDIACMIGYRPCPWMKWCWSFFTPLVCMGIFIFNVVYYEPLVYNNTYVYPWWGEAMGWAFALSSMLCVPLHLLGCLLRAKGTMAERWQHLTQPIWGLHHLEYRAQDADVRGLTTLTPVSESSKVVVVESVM
# UniProt Q14BN4: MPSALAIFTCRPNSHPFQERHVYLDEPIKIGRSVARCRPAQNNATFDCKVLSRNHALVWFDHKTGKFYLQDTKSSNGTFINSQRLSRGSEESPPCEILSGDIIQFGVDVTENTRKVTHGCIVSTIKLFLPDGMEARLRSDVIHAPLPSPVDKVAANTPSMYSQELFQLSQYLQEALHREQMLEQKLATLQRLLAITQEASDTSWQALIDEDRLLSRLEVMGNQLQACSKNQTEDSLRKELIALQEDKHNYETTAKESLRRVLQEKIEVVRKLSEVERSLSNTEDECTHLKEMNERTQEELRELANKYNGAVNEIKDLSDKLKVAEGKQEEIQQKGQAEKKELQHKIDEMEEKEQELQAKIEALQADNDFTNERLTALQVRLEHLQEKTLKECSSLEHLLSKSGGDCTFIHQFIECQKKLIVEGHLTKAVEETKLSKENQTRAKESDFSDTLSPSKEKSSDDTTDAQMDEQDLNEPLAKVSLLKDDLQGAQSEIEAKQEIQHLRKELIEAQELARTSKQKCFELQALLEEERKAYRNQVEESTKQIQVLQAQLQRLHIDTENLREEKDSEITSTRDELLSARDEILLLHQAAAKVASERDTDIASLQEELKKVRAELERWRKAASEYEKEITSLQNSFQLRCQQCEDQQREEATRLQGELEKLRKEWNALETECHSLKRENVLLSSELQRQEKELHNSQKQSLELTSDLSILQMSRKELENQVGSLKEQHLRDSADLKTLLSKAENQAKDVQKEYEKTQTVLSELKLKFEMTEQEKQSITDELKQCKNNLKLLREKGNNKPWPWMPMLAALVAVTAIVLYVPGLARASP
# UniProt L0R6Q1: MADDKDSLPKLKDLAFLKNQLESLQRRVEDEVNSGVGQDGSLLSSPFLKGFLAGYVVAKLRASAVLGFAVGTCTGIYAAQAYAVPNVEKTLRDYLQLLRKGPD
# UniProt A1A5C7: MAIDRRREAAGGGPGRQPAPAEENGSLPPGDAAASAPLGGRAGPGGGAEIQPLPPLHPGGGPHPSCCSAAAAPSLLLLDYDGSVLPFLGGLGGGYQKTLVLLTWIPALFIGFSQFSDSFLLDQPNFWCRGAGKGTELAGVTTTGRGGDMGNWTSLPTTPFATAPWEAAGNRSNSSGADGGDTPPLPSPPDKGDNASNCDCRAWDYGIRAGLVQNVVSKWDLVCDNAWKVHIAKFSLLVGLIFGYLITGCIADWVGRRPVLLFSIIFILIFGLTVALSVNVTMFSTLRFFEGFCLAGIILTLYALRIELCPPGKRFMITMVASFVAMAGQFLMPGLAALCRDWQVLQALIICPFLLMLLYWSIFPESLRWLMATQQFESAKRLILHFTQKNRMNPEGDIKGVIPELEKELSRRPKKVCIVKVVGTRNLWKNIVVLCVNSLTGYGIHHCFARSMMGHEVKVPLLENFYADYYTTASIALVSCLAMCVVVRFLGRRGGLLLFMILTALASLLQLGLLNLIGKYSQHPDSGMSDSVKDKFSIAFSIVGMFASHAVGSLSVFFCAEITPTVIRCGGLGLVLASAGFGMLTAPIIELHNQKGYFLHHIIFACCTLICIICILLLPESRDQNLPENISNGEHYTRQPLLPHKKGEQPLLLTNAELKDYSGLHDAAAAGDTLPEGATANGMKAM
# UniProt Q8IZM9: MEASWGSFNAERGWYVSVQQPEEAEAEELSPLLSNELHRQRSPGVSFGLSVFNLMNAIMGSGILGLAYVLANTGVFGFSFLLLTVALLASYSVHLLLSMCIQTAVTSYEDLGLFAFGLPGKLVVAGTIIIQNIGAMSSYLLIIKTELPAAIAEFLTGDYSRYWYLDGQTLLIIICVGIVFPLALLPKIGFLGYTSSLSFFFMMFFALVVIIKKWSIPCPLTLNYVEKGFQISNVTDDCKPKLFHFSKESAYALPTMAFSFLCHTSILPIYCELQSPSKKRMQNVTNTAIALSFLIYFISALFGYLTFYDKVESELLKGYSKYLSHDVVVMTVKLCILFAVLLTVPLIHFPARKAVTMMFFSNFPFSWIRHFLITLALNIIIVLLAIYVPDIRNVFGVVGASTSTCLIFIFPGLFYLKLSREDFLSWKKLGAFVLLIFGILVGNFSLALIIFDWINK
# UniProt Q9BWU0: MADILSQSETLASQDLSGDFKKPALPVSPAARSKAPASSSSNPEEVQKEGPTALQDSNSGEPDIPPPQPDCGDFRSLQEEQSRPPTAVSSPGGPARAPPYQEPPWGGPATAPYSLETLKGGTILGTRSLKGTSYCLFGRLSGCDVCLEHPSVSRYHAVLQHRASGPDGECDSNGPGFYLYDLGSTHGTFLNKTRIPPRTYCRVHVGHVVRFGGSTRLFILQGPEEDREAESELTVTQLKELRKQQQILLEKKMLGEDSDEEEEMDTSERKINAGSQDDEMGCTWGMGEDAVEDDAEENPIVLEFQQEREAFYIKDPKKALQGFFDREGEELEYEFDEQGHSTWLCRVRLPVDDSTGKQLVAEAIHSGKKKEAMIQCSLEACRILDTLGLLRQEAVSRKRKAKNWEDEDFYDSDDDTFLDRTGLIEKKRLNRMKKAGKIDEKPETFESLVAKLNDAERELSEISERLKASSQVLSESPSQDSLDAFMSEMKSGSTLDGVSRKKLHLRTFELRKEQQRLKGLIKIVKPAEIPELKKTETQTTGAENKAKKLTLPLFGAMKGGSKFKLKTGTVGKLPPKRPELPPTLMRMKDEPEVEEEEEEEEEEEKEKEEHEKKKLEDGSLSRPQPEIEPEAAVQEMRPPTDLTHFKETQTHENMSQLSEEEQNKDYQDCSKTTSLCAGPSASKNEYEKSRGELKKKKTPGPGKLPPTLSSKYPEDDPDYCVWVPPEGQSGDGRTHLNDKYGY
# UniProt Q9BRY0: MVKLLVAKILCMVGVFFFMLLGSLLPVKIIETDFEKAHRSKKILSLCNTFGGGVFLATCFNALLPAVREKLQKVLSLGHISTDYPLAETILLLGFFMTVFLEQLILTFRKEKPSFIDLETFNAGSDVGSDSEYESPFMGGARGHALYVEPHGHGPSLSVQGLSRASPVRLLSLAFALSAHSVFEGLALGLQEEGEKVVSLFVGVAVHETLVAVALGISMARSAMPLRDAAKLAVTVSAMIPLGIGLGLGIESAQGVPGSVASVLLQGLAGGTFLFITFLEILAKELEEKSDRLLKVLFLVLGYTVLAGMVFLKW
# Some of the results follow.
# Legend:
# Test in all cases: log2 fold change, soluble protein after heating vs DMSO (PISA); higher = thermal stabilisation; K562 lysate, 10 uM; active = over 0.2 and 3.5 SD of the protein, either way, in both replicates (recomputed)
# [1] = compound: NCC(=O)Nc1ccc(-n2nc(C(F)(F)F)cc2-c2ccc3c(ccc4ccccc43)c2)cc1
# How it was run: (§1)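 Values give the log-two fold change in thermal stability against solvent controls, from duplicates. Crude K562 extract at 1 mg/mL protein, made by dounce homogenisation in PBS pH 7.4 with 1 mM MgCl2, was treated with 10 μM compound for 30 min. After 3 min heating across 48°C-58°C, aliquots were pooled, adjusted to 0.5% NP-40 at 4°C and centrifuged at 21,000xg for 90 min. The supernatant was measured by TMTpro 16plex LC-MS/MS with channel sums equalised.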
# [2] = compound: O=C(CCCCCCC(=O)Nc1ccccc1)NO [vorinostat]
# How it was run: as §1
# [3] = compound: O=C(O)c1ccc2c(c1)nc(Nc1cccc(Cl)c1)c1ccncc12 [silmitasertib]
# How it was run: as §1
# [4] = compound: O=C1NC(=O)C(c2cnc3ccccn23)=C1c1cn2c3c(cc(F)cc13)CN(C(=O)N1CCCCC1)CC2
# How it was run: as §1
# [5] = compound: c1cn2cc(-c3ccc4cn[nH]c4c3)nc(Nc3ccc(N4CCOCC4)cc3)c2n1 [entospletinib]
# How it was run: as §1
Target,log2 fold change [1],log2 fold change [2],log2 fold change [3],log2 fold change [4],log2 fold change [5]
SMAD9 (UniProt O15198),inactive: 0.007,active: -0.436,inactive: 0.023,inactive: -0.012,inactive: 0.017
SLC38A9 (UniProt Q8NBW4),inactive: 0.171,inactive: 0.092,inactive: -0.006,inactive: 0.023,inactive: 0.01
SLC35A1 (UniProt P78382),inactive: 0.062,inactive: -0.267,inactive: 0.15,inactive: -0.03,–
SLC25A51 (UniProt Q9H1U9),inactive: -0.021,inactive: -0.023,inactive: -0.014,inactive: 0.077,inactive: 0.036
SLC25A1 (UniProt P53007),inactive: -0.025,inactive: -0.139,inactive: 0.014,inactive: -0.03,inactive: 0.029
SLC22A5 isoform 3 (UniProt O76082),inactive: -0.202,inactive: -0.095,inactive: -0.071,inactive: -0.324,–
SLC3A2 isoform 3 (UniProt P08195),inactive: 0.011,inactive: 0.143,inactive: -0.019,inactive: -0.004,inactive: 0.009
SLC25A24 (UniProt Q6NUK1),inactive: 0.003,inactive: 0.103,inactive: -0.014,inactive: -0.027,inactive: 0.027
SLC29A2 (UniProt Q14542),inactive: -0.045,inactive: 0.139,inactive: 0.117,inactive: 0.031,inactive: -0.06
SLC35B3 (UniProt Q9H1N7),inactive: -0.033,inactive: 0.036,inactive: -0.033,inactive: -0.046,–
SLU7 (UniProt O95391),inactive: 0.208,inactive: 0.012,inactive: -0.037,inactive: 0.046,inactive: -0.024
SLC36A1 (UniProt Q7Z2H8),inactive: 0.252,inactive: 0.238,inactive: -0.018,inactive: 0.059,inactive: 0.115
SMAP (UniProt O00193),inactive: -0.014,inactive: 0.046,inactive: -0.051,inactive: -0.028,inactive: 0.001
SLK isoform 2 (UniProt Q9H2G2),inactive: -0.005,inactive: -0.036,inactive: 0.205,inactive: 0.008,inactive: 0.017
SLC30A1 (UniProt Q9Y6M5),inactive: 0.033,inactive: -0.056,inactive: 0.017,inactive: 0.052,inactive: -0.021
SLC31A1 (UniProt O15431),inactive: 0.062,inactive: 0.015,inactive: 0.028,inactive: -0.096,–
SLC33A1 (UniProt O00400),inactive: -0.004,inactive: 0.094,inactive: -0.026,inactive: -0.028,inactive: -0.002
SLC6A8 isoform 2 (UniProt P48029),inactive: 0.02,inactive: 0.292,inactive: -0.114,inactive: 0.059,inactive: -0.072
SLC25A25 isoform 3 (UniProt Q6KCM7),inactive: 0.016,inactive: 0.054,inactive: 0.02,inactive: -0.036,inactive: 0.001
SLC25A30 (UniProt Q5SVS4),inactive: -0.082,inactive: -0.008,inactive: -0.032,inactive: -0.021,–
SLC35B1 isoform 2 (UniProt P78383),inactive: -0.008,inactive: 0.068,inactive: -0.007,inactive: 0.073,inactive: -0.219
SLC25A11 (UniProt Q02978),inactive: 0.031,inactive: 0.051,inactive: 0.053,inactive: -0.025,inactive: -0.003
SLMAP isoform 3 (UniProt Q14BN4),inactive: -0.001,inactive: -0.155,inactive: 0.036,inactive: -0.013,inactive: -0.016
SLC4A7 isoform 7 (UniProt Q9Y6M7),inactive: -0.025,inactive: 0.186,inactive: 0,inactive: 0.003,inactive: -0.037
SLC35A4 (UniProt L0R6Q1),inactive: -0.077,inactive: 0.113,inactive: -0.077,inactive: 0.064,inactive: -0.021
SLC29A1 isoform 2 (UniProt Q99808),inactive: 0.03,inactive: 0.124,inactive: -0.023,inactive: -0.044,inactive: 0.066
SLC25A17 (UniProt O43808),inactive: 0.021,inactive: 0.015,inactive: -0.026,inactive: -0.033,inactive: -0.027

# Individual results from above:
# SLC3A2 isoform 3 (UniProt P08195) | log2 fold change [4]: inactive: -0.004
# SLC38A9 (UniProt Q8NBW4) | log2 fold change [4]: inactive: 0.023

# Later entries.

Target,log2 fold change [1],log2 fold change [2],log2 fold change [3],log2 fold change [4],log2 fold change [5]
SLC25A6 (UniProt P12236),inactive: -0.003,inactive: 0.012,inactive: -0.007,inactive: -0.034,inactive: 0.034
SLC5A3 (UniProt P53794),inactive: 0.053,inactive: 0.006,inactive: -0.026,inactive: 0.018,inactive: 0.008
SLC38A2 (UniProt Q96QD8),inactive: -0.045,inactive: 0.048,inactive: -0.037,inactive: -0.042,inactive: 0.05
SLC25A16 (UniProt P16260),inactive: 0.122,inactive: -0.127,inactive: 0.097,inactive: 0,–
SLC22A23 (UniProt A1A5C7),inactive: 0.07,inactive: 0.132,inactive: 0.029,inactive: -0.082,inactive: 0.011
SLC25A21 (UniProt Q9BQT8),inactive: -0.039,inactive: 0.084,inactive: -0.013,inactive: -0.033,inactive: 0.026
SLC38A6 isoform 2 (UniProt Q8IZM9),inactive: 0.016,inactive: 0.34,inactive: -0.115,–,–
SLC4A1AP (UniProt Q9BWU0),inactive: 0.011,inactive: -0.007,inactive: -0.03,inactive: 0.01,inactive: -0.01
SLC8B1 (UniProt Q6J4K2),inactive: -0.196,–,–,–,–
SLC4A2 (UniProt P04920),inactive: -0.109,inactive: -0.03,inactive: 0.024,inactive: -0.021,inactive: 0.003
SLC2A3 (UniProt P11169),inactive: 0.006,inactive: 0.058,inactive: -0.012,inactive: -0.061,inactive: 0.006
SLC6A8 (UniProt P48029),inactive: 0.086,inactive: -0.007,inactive: 0.014,inactive: -0.059,inactive: -0.113
SLC25A32 (UniProt Q9H2D1),inactive: 0.053,inactive: 0.23,inactive: -0.008,inactive: 0.046,inactive: 0.033
SLC25A46 (UniProt Q96AG3),inactive: -0.015,inactive: 0.126,inactive: -0.007,inactive: 0.014,inactive: 0.012
SLC39A7 (UniProt Q92504),inactive: 0.05,inactive: -0.073,inactive: -0.018,inactive: 0.012,inactive: 0.001
SLC35A3 isoform 2 (UniProt Q9Y2D2),inactive: -0.022,inactive: 0.091,inactive: -0.07,inactive: 0.019,inactive: 0
SMAD4 (UniProt Q13485),inactive: 0.023,inactive: 0.015,inactive: -0.017,inactive: 0.014,inactive: -0.008
SLC43A3 isoform 2 (UniProt Q8NBI5),inactive: -0.045,inactive: 0.02,inactive: 0.028,inactive: 0.022,inactive: -0.006
SLC39A10 (UniProt Q9ULF5),inactive: -0.059,inactive: -0.007,inactive: 0.083,inactive: -0.051,inactive: -0.075
SLC39A3 (UniProt Q9BRY0),inactive: 0.004,inactive: 0.062,inactive: -0.025,inactive: 0.021,inactive: 0.065
SLC26A6 (UniProt Q9BXS9),inactive: 0.012,inactive: 0.048,inactive: 0.03,inactive: 0.021,inactive: -0.111
SLC37A4 isoform 2 (UniProt O43826),inactive: -0.014,inactive: 0.13,inactive: 0.058,inactive: -0.074,inactive: 0.007
SLC6A6 (UniProt P31641),inactive: -0.079,inactive: 0.077,inactive: 0.011,inactive: 0.044,inactive: 0.028
SLC39A8 (UniProt Q9C0K1),inactive: -0.068,inactive: 0.03,inactive: 0.027,inactive: -0.056,inactive: -0.04
SLC30A9 (UniProt Q6PML9),inactive: -0.109,inactive: 0.071,inactive: -0.058,inactive: 0.004,inactive: -0.027
SLC26A2 (UniProt P50443),inactive: -0.009,inactive: 0.197,inactive: -0.03,inactive: -0.045,inactive: 0.004
